No constants are given. Whether binding was seen depends on the method and setting. Some binding calls cover weakened binding; strength is not graded here. Tags and fused reporters may be left off the sequences shown.
Biological target: T1, growth differentiation factor 11 (GDF11) (UniProt O95390)
T1 sequence (looked up): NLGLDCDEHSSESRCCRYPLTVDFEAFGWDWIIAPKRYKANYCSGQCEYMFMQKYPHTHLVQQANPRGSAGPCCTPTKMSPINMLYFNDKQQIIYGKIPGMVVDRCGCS
Experiment: SPR, Biacore 3000; receptor fusion captured on chip, ligand in solution

B1: ActRIIa/b+ (SEQ ID NO: 150) fused to the N-terminus of hFc through a GGG linker (Fc fusion)
chain: GAILGRSETQECLFYNANWELERTNQTGVERCEGEKDKRLHCYATWRNISGSIEIVAKGCWLDDFNCYDRTDCVETEENPQVYFCCCEGNMCNEKFSYFPEMEVTQPTSGGG
notes: also called ActRIIab+ variant; not shown: human Fc (hFc)
Question: How did the binding turn out when B1 was run?
Answer: The binding was “binds”.
